Test results: US10548897B2, “KSR antagonists” (Icahn School of Medicine at Mount Sinai, priority 2015, dated 2020)

Tested on: MAPK pathway readouts (pERK, pMEK, pRSK) in A375 and HCT-116
Experiment: Western blot of MAPK pathway readouts, treatment with trametinib combinations
Type: cell-based
Settings: combined with trametinib

SMILES: CN[C@@H]1C[C@H]2O[C@@](C)([C@@H]1OC)n1c3ccccc3c3c4c(c5c6ccccc6n2c5c31)C(=O)NC4 [staurosporine]
- MAPK pathway inhibition (pERK, pMEK, pRSK) in combination with trametinib: not observed
